PubChem BioAssay AID1259282 – Sanger Institute | 2017
Shown is a random part of 794 reagents. 11 of them (1.4%) count as active. 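Calls flag knock-downs that lower viability without drug; drug synergy appears only in the synergy scores; exposure time not stated.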 Not all columns of the deposit are shown. Not given: the amount of reagent, the time to read-out.

Test: 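siRNA screen across the kinome seeking drug combinations lethal to colorectal cancer cells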 (primary screen)
Cells: DIFI human colorectal cancer cell line
Reagents: siRNA pool against human genes
Challenge: anchor drug at a mild dose (BYL719 1 µM, cetuximab 5 µg/ml, trametinib 10 nM) or DMSO vehicle; exposure time not given
Detection: 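Robust z-score and replicate-mean viability versus non-targeting pool without drug, plus a synergy score for each low-dose anchor drug (BYL719, cetuximab, trametinib)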
Scale: robust z-score, knock-down alone: higher = more viable cells than typical knock-down
Call rule: 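Essential when the robust z-score of the knock-down without drug falls below -3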
Calls: active = essential (knock-down alone, z below -3); inactive = not essential

CSNK1G3
- robust z-score, knock-down alone: 0.715
- call: inactive

CAD
- robust z-score, knock-down alone: 0.715
- call: inactive

PAPSS2
- robust z-score, knock-down alone: 0.715
- call: inactive

NME2
- robust z-score, knock-down alone: 0.715
- call: inactive

GAK
- robust z-score, knock-down alone: 0.715
- call: inactive

MAP3K9
- robust z-score, knock-down alone: -3.59
- call: active

PDK4
- robust z-score, knock-down alone: 0.715
- call: inactive

PBK
- robust z-score, knock-down alone: 0.715
- call: inactive

SRP72
- robust z-score, knock-down alone: 0.715
- call: inactive

STK17A
- robust z-score, knock-down alone: -1.85
- call: inactive

PHKG1
- robust z-score, knock-down alone: 0.715
- call: inactive

RIPK4
- robust z-score, knock-down alone: 0.715
- call: inactive

PHKG2
- robust z-score, knock-down alone: 0.715
- call: inactive

MYO3B
- robust z-score, knock-down alone: 0.715
- call: inactive

THNSL1
- robust z-score, knock-down alone: 0.632
- call: inactive

GATA3
- robust z-score, knock-down alone: -0.268
- call: inactive

NR4A2
- robust z-score, knock-down alone: -1.99
- call: inactive

ROCK2
- robust z-score, knock-down alone: 0.715
- call: inactive

MAP3K1
- robust z-score, knock-down alone: 0.715
- call: inactive

RELA
- robust z-score, knock-down alone: 0.715
- call: inactive

UCKL1
- robust z-score, knock-down alone: 0.715
- call: inactive

ADCK5
- robust z-score, knock-down alone: -0.918
- call: inactive

PACSIN1
- robust z-score, knock-down alone: 0.00319
- call: inactive

CASP8
- robust z-score, knock-down alone: 0.715
- call: inactive

MAP3K12
- robust z-score, knock-down alone: 0.715
- call: inactive

MAP3K14
- robust z-score, knock-down alone: -0.465
- call: inactive

PIK3C2G
- robust z-score, knock-down alone: -0.183
- call: inactive

PIM1
- robust z-score, knock-down alone: -1.17
- call: inactive
